Data on 1 molecule can be found in patent US20160280798A1, “ALK ANTIBODIES, CONJUGATES, AND CHIMERIC ANTIGEN RECEPTORS, AND THEIR USE” (The United States of America, as Represented by the …, priority 2013, published 2016).

For this data set, the system named is transduced PBMC / T cell surface. Put plainly: CAR expression on transduced T cells by flow cytometry. The conditions noted are these: anti-Fc or protein L staining, FIG. 3. Format: cell-based, human. (In flow cytometry, cells or beads pass a laser one at a time.)

B1: ALK48: CAR construct, long format: SP-murine ALK48 scFv-CH2CH3 spacer; signaling domains not stated for the in vitro tests (antibody, V domains shown)
VH: QVQLQQSGAELVKPGASVKISCKASGYAFSSYWMNWVKQRPGKGLEWIGQIYPGDGDTTYNGKFKGKATLTADKSSSTVYMQLNSLTSEDSAVYFCVRYYYGSSGYFDYWGQGTTLTVSS
VL: DVQMIQTPDSLAVSLGQRATISCRASESVDNYGISFMHWYQQKPGQSPKLLIYRASNLESGIPARFSGSGSRTDFTLTINPVETDDVATYYCQQNNKDPPTFGGGTKLEIK
In the case of B1, the “CAR cell surface expression level” value is “weaker and less distinct expression”.
